From article PMC5484684, “Intracellular targeting of annexin A2 inhibits tumor cell adhesion, migration, and in vivo grafting” (Scientific Reports, 2017)
These are yes or no findings as the source states them, for the method shown. For some of these results: Sequences can lack the tags named with a protein.

Amino acid sequences for entries named in this document (tags omitted).
UniProt P08758: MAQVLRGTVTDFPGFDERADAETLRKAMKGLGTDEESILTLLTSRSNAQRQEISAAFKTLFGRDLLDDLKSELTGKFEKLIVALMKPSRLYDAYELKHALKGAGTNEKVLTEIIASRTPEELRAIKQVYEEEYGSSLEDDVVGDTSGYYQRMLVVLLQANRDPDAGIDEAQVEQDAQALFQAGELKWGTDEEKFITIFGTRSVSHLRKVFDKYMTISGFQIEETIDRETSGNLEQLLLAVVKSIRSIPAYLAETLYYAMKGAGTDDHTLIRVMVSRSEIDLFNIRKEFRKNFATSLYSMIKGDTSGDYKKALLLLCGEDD

Experiments:
Test in all cases: phage binding assay; recombinant proteins in 96-well plates; iPhage input 10^9 TU/well; bound phage particles quantified by bacterial infection; TU normalised on an insertless iPhage; both purified
[1] = target: human recombinant annexin A5 (human) (UniProt P08758)
[2] = target: T1, GST-fused recombinant LASP1 (UniProt Q14847)
T1 sequence: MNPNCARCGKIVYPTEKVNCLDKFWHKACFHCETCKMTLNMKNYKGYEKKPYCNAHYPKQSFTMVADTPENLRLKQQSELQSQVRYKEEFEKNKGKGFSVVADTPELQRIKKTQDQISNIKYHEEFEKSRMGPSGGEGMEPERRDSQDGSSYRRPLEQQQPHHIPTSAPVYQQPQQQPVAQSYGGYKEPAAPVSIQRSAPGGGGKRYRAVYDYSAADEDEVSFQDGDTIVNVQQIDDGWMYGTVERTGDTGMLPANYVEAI

[3] = target: T2, human recombinant annexin A1 (human) (UniProt P04083)
T2 sequence: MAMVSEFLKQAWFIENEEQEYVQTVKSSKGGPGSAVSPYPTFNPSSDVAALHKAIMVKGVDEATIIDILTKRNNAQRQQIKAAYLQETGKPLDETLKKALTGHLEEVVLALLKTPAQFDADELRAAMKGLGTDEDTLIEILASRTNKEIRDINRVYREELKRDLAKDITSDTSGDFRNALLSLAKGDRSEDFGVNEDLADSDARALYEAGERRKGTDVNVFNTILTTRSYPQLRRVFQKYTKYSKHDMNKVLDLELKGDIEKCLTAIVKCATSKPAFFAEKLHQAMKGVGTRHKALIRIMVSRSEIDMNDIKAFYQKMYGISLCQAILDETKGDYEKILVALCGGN

[4] = target: T3, human recombinant annexin A4 (human) (UniProt P09525)
T3 sequence: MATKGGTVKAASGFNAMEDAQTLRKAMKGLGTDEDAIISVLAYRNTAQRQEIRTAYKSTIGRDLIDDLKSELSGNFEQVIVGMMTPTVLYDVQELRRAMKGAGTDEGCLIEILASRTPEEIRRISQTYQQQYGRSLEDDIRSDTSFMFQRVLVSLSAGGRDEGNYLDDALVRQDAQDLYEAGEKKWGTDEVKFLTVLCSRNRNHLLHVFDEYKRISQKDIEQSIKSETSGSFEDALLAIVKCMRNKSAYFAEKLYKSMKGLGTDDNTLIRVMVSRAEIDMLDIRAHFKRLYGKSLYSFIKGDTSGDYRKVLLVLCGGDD

Measured: binding

B1: …-displaying iPhage (peptide)
peptide: LGRFYAASG
no binding: all assays above
